The results in this text go back to the supplement of paper PMC12819154, “High-throughput peptide-centric local stability assay extends protein–ligand identification to membrane proteins, tissues and bacteria” (Nature Structural & Molecular Biology, 2025).

Chains of the proteins cited; added tags and fusions are not shown. Lines headed by an entry give the natural chain unless they say otherwise; changes in a name come on top.
UniProt P26281: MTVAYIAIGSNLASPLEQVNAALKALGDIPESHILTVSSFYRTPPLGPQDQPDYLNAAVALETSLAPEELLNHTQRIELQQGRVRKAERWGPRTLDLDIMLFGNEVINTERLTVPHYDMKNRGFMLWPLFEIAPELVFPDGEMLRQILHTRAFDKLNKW
UniProt P28306: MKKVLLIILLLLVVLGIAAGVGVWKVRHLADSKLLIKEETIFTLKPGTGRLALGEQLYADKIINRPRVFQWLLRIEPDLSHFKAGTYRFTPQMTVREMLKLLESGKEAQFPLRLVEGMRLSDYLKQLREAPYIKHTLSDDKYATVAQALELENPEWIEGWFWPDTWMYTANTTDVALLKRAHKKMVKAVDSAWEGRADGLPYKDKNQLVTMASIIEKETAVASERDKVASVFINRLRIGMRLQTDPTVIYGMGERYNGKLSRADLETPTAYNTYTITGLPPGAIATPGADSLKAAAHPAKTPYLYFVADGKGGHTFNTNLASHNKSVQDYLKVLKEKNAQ
UniProt P29018: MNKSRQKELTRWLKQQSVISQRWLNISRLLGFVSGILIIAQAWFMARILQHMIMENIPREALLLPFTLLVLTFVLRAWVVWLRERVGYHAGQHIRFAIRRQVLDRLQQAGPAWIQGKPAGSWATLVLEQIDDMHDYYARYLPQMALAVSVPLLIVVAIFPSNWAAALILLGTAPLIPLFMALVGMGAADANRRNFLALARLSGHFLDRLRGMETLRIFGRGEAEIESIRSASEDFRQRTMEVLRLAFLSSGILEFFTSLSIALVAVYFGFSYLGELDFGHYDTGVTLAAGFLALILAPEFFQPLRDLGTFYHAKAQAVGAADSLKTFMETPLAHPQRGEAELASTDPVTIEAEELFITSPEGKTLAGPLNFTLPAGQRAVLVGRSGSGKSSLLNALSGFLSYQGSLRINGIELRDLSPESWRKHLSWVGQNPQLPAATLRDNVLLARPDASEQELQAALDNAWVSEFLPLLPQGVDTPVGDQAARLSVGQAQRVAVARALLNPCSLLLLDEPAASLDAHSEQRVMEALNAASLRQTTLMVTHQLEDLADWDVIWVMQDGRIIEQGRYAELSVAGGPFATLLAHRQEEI
UniProt P25549: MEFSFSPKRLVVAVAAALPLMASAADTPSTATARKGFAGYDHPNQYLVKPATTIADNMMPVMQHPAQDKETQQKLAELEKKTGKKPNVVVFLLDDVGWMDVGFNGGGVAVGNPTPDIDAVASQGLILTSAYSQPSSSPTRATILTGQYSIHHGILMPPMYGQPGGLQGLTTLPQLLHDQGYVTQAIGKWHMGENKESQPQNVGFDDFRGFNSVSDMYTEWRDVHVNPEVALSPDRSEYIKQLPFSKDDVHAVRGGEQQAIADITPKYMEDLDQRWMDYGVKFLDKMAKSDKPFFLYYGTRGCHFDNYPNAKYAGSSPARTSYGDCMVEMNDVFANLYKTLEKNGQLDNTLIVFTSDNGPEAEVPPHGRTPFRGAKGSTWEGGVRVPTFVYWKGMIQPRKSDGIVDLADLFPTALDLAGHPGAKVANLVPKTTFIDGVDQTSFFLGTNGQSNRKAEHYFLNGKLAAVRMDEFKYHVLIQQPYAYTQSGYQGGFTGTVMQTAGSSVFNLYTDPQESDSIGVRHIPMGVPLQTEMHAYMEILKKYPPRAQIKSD
UniProt P27250: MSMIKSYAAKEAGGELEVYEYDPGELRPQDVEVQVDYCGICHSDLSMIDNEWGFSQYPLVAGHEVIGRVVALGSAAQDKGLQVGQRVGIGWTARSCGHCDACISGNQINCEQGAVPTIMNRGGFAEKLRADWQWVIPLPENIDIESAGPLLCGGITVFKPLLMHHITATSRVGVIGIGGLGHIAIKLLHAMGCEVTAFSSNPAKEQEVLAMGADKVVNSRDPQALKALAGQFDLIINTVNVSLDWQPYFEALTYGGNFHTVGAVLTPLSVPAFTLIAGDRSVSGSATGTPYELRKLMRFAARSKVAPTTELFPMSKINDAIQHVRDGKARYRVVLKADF
UniProt P33229: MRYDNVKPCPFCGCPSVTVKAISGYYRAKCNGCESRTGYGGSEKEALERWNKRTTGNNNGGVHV
UniProt P31069: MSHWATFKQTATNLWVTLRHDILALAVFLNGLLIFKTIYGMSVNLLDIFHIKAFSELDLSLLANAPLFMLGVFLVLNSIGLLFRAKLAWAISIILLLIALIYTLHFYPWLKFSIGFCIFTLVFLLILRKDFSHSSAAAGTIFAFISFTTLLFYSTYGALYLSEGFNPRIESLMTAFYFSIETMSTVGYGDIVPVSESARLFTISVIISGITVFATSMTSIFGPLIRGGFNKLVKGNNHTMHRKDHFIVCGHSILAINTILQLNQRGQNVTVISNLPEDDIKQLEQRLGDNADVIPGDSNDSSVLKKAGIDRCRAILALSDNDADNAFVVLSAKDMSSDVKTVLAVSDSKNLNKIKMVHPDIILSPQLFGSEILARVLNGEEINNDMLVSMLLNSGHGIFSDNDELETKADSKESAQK
UniProt P27296: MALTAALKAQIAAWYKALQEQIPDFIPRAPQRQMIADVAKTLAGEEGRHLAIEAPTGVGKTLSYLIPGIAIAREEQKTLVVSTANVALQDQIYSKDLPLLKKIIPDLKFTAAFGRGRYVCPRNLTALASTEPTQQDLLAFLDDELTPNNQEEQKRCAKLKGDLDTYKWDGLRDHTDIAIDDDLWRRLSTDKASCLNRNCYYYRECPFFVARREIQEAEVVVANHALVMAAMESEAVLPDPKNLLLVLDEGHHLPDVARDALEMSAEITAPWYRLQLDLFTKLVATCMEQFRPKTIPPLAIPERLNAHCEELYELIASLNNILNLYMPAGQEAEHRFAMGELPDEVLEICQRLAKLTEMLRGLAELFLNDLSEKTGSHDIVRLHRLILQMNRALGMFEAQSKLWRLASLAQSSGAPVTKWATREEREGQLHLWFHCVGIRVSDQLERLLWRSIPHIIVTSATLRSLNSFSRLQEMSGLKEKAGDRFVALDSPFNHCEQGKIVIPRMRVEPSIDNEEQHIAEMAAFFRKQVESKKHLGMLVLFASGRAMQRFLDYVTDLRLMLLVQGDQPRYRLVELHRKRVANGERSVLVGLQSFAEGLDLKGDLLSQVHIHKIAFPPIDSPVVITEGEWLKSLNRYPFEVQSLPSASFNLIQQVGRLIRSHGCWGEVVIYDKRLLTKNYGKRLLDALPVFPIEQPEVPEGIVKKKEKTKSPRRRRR
UniProt P26612: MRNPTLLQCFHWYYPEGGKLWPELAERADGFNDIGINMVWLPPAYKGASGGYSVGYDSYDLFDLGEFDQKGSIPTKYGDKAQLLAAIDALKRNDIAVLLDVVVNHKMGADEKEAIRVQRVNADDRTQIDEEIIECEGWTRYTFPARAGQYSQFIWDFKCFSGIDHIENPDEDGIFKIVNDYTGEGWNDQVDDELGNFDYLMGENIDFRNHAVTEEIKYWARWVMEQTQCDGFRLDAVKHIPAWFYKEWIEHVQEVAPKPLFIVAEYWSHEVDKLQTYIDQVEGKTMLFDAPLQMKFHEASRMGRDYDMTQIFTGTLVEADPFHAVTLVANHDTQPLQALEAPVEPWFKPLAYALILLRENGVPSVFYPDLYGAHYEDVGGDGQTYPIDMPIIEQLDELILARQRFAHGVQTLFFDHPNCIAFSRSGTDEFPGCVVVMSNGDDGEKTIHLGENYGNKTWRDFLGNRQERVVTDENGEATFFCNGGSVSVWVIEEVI
UniProt P33643: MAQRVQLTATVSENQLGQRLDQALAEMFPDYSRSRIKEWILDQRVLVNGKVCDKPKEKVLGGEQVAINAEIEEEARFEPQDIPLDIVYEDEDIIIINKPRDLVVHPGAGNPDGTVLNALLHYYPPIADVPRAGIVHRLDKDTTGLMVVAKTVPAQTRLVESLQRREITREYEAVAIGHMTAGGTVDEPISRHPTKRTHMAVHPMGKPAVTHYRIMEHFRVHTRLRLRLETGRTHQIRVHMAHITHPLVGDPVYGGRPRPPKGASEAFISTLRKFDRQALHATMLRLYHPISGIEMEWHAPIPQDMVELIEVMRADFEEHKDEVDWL
UniProt P32680: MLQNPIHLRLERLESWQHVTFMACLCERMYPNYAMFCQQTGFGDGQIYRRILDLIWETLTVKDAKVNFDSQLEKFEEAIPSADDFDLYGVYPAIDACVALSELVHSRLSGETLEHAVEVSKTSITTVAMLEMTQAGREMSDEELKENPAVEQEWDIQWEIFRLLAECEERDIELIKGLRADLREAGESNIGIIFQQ
UniProt P24230: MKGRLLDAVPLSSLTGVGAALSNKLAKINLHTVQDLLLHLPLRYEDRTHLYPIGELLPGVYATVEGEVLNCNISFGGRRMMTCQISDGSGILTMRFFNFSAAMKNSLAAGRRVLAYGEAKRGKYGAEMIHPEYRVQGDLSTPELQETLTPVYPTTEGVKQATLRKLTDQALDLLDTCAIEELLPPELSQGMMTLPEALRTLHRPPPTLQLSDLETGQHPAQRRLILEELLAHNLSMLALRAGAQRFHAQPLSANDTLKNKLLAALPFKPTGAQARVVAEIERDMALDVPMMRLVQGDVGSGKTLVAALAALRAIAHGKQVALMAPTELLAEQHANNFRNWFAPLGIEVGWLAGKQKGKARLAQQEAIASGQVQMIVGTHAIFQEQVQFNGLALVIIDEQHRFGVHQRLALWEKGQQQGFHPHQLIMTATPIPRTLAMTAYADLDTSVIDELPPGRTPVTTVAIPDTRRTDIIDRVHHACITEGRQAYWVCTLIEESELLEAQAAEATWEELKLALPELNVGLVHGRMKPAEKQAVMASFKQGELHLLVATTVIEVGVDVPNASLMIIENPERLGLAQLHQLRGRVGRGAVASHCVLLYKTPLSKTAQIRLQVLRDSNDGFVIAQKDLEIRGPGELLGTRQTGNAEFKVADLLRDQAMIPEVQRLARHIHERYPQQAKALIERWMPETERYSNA

The list shows a part of the results. Small differences around the control level are noise.

Compound in the assay: CC1(C)S[C@@H]2[C@H](NC(=O)[C@H](N)c3ccccc3)C(=O)N2[C@H]1C(=O)O [ampicillin]
Kind of assay: log2 fold change of tryptic peptide abundance, ligand vs vehicle (limited proteolysis) (log2 ratio); higher = more trypsin-susceptible (destabilized). The following applies: ligand concentration: 10 uM; sample: E. coli crude lysate.
On to “UniProt P26281 (peptide sequence: AFDKLNKW, peptide start residue: 152)”, for which the log2 fold change turned out to be 0.214.
With “UniProt P28306 (peptide sequence: DKVASVFINR, peptide start residue: 226)” the figure was 0.393; with “UniProt P29018 (peptide sequence: DLSPESWR, peptide start residue: 415)”, -0.146.
With “UniProt P25549 (peptide sequence: VPTFVYWK, peptide start residue: 385)” the figure was 0.402; with “UniProt P27250 (peptide sequence: VVALGSAAQDK, peptide start residue: 69)”, 0.254.
The same measure for “UniProt P33229 (peptide sequence: TGYGGSEKEALER, peptide start residue: 37)”: -0.479.
For the target “UniProt P31069 (peptide sequence: TVLAVSDSK, peptide start residue: 341)”, the log2 fold change was -0.0634.
With “UniProt P27296 (peptide sequence: LMLLVQGDQPR, peptide start residue: 559)” the figure was 0.242.
With “UniProt P26612 (peptide sequence: MGADEKEAIR, peptide start residue: 107)” the figure was -1.42.
The same measure for “UniProt P33643 (peptide sequence: THMAVHPMGKPAVTHYR, peptide start residue: 197)”: 0.423; for “UniProt P32680 (peptide sequence: LSGETLEHAVEVSK, peptide start residue: 108)”: 0.217; for “UniProt P24230 (peptide sequence: LLAALPFKPTGAQAR, peptide start residue: 261)”: -0.179.
